Assay results as given in paper PMC5526866.
These are yes or no findings as the source states them, for the method shown. For some of these results: In cells and extracts the contact can be indirect. Some results given as binding are weak or reduced against the parent protein; the word gives no strength. For some of these results: Tags and fused reporters may be left off the sequences shown. Each block holds one molecule with its values, some of them ahead of it.

Amino acid sequences for entries named in this document (tags omitted). Residues count along the entry.
UniProt P02769, residues 25-607: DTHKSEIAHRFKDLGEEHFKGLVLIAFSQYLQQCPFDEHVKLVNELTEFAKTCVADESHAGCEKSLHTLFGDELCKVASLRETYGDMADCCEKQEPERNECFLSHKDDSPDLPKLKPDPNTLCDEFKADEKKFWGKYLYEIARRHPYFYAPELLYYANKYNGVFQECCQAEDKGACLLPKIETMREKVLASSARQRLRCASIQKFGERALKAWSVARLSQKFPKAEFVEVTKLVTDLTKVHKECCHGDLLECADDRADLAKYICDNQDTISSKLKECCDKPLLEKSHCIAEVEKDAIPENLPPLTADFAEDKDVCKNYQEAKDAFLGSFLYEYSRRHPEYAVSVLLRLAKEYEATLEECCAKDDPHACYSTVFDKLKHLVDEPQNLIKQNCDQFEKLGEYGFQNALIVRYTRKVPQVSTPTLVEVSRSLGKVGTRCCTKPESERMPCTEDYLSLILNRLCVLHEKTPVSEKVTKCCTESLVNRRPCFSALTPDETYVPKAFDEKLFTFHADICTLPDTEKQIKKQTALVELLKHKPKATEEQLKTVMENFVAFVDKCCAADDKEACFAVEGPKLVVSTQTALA
UniProt B2RWS6: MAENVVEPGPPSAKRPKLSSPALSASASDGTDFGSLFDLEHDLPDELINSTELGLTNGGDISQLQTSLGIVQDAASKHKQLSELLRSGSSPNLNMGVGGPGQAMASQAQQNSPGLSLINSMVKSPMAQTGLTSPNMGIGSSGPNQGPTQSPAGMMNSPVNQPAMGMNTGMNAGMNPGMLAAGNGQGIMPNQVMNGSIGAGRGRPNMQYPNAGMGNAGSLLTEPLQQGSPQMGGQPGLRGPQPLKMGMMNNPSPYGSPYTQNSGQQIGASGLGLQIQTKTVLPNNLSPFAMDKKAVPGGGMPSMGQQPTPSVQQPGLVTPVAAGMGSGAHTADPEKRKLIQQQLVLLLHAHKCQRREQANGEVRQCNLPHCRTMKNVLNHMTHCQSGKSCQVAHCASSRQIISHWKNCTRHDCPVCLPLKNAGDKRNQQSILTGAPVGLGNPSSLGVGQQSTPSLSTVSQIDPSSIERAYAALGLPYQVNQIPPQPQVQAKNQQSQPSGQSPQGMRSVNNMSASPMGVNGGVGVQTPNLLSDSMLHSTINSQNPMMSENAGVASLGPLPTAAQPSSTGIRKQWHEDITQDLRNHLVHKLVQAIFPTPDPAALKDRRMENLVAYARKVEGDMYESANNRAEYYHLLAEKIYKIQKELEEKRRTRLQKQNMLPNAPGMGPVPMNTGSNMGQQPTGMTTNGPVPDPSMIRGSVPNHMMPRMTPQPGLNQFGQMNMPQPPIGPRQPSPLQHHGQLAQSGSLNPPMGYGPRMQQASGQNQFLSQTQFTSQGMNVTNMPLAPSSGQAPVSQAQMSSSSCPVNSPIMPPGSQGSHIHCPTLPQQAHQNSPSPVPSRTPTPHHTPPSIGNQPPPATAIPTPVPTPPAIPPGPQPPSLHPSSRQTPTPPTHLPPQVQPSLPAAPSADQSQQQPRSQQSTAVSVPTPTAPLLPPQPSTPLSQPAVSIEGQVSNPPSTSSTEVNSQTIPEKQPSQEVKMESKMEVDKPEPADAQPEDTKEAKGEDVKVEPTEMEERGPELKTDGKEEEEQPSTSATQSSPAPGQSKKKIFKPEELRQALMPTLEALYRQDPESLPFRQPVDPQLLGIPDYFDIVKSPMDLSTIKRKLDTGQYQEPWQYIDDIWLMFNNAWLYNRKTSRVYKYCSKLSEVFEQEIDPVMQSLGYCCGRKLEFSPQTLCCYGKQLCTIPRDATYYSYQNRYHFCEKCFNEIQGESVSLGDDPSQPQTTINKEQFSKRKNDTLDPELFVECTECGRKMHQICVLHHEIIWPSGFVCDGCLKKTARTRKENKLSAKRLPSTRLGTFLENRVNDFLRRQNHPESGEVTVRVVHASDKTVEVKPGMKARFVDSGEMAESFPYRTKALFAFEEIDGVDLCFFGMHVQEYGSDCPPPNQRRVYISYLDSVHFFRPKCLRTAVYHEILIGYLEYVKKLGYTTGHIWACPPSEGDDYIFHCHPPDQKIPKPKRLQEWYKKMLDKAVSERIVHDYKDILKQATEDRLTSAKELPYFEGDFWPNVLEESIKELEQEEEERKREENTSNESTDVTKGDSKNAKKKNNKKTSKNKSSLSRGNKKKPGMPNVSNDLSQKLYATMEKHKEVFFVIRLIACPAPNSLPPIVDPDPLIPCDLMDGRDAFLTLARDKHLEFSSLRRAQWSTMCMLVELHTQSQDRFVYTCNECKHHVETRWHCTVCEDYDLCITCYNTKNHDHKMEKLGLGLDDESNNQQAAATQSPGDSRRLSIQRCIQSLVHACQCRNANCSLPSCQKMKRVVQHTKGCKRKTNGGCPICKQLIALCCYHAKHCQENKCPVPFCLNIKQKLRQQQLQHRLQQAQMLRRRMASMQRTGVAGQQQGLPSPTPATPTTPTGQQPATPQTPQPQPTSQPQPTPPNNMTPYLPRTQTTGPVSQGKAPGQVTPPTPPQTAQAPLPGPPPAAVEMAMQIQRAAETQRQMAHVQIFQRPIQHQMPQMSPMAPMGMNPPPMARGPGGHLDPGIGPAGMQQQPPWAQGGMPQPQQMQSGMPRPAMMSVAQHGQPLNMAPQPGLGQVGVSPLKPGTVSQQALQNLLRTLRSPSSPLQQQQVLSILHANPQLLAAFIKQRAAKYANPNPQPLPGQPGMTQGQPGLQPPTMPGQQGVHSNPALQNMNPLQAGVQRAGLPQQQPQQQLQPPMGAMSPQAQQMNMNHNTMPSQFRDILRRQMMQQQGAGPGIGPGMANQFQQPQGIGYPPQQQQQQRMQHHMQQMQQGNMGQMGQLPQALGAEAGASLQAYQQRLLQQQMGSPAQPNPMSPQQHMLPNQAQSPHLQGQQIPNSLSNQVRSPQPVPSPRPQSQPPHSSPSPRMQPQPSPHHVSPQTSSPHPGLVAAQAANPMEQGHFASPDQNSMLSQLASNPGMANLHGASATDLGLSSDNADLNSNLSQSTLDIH
UniProt Q09472: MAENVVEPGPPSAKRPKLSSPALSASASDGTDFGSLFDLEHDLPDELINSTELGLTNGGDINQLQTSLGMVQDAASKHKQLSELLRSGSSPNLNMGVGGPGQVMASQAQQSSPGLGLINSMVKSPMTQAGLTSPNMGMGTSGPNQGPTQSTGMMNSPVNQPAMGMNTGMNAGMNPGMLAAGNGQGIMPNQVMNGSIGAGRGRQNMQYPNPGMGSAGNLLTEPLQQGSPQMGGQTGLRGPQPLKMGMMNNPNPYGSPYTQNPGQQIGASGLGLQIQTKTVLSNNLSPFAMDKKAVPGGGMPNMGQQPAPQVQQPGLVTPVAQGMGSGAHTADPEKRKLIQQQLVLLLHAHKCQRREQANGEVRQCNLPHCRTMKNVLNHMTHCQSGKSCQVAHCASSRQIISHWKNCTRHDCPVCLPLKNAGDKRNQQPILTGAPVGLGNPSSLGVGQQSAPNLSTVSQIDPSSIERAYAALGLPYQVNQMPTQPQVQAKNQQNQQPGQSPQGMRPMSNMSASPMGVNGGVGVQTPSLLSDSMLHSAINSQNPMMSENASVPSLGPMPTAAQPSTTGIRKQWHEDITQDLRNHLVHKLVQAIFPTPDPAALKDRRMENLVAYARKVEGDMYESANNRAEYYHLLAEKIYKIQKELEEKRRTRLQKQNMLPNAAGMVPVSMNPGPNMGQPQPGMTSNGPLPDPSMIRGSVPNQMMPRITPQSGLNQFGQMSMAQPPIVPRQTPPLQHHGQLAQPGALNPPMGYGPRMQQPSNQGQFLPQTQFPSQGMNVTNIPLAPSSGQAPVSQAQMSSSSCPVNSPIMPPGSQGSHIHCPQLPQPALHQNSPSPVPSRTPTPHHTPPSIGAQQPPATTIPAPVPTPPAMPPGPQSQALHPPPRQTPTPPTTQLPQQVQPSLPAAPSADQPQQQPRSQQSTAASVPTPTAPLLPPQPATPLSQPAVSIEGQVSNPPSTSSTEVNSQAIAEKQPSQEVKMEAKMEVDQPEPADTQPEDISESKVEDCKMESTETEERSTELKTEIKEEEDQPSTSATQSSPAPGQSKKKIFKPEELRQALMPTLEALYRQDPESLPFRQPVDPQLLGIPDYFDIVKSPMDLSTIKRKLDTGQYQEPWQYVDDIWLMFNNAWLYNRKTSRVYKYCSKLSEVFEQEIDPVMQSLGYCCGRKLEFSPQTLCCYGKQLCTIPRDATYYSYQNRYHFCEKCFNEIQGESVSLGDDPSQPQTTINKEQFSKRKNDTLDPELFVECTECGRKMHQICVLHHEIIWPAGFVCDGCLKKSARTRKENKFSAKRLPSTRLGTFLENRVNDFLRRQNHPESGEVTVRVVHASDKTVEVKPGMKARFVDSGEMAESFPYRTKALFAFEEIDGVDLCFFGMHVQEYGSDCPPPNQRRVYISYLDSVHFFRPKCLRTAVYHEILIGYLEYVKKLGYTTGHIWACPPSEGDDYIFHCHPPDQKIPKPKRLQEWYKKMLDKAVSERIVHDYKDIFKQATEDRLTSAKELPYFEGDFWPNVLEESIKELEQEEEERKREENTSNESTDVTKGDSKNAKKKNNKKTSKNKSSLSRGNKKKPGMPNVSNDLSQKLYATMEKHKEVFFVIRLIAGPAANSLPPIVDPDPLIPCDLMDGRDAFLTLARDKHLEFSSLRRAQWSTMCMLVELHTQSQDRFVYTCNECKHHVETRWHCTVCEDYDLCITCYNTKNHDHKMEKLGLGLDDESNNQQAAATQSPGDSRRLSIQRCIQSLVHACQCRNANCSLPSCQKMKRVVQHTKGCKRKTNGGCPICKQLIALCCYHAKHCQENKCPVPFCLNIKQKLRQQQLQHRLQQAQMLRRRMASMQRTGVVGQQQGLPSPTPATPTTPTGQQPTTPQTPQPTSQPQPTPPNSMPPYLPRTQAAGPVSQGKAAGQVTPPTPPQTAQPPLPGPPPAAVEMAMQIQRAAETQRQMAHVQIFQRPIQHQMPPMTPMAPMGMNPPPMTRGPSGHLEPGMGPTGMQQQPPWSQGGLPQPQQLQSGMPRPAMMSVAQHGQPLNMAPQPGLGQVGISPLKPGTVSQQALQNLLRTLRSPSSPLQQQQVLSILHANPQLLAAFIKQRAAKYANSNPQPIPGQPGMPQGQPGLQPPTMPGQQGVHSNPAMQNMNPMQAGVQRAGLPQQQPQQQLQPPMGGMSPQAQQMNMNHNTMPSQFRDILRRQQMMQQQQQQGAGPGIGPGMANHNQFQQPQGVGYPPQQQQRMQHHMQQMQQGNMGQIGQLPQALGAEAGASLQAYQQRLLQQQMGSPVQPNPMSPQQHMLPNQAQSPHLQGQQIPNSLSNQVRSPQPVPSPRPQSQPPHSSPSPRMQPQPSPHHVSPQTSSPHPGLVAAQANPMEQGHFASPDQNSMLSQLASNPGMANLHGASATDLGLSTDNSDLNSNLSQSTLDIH
UniProt P15208, residues 753-1372: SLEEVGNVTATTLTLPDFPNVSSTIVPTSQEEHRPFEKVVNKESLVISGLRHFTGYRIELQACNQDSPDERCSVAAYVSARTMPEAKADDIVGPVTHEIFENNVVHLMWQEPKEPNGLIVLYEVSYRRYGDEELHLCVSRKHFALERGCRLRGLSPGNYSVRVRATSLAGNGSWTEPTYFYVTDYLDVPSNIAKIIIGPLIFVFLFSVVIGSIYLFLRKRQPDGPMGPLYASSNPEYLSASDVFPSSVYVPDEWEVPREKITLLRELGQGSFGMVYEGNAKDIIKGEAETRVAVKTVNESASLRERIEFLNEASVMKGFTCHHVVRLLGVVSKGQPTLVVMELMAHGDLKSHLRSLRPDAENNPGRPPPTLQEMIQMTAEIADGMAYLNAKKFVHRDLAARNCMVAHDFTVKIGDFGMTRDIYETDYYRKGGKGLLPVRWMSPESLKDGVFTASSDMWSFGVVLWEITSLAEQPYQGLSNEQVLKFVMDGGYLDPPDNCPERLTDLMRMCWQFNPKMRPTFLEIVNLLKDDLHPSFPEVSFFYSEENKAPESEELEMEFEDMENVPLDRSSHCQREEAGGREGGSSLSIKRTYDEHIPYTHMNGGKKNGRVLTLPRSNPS

Assays:
FLAG-tagged XBP1s = biological target: T1, FLAG-tagged XBP1s (UniProt O35426); assay: far-Western, overlay or dot blot; bovine serum albumin and purified FLAG-tagged XBP1s run on SDS-PAGE and transferred to a membrane; incubated with human P300 protein (1 µg) for 16 h; detected with antibody against P300; both purified
T1 sequence: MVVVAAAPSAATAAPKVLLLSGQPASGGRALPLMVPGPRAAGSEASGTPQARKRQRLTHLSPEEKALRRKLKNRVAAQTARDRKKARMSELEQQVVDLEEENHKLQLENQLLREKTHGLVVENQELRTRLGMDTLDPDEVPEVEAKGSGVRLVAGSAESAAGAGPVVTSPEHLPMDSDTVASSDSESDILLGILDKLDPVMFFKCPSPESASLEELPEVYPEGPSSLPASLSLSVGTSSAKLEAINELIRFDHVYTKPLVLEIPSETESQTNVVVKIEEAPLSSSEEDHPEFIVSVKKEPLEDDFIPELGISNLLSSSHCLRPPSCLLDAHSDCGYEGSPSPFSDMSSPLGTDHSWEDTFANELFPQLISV

[1] = biological target: bovine serum albumin (bovine) (UniProt P02769); assay: as above
[2] = biological target: T2, FLAG-tagged IRS2-WT (mouse) (UniProt P81122); assay: co-IP; FLAG-tagged IRS1/2-WT or -panKR transfected into Hepa1-6 cells for 48 h; pulled down with anti-FLAG magnetic beads; endogenous IRβ detected
T2 sequence: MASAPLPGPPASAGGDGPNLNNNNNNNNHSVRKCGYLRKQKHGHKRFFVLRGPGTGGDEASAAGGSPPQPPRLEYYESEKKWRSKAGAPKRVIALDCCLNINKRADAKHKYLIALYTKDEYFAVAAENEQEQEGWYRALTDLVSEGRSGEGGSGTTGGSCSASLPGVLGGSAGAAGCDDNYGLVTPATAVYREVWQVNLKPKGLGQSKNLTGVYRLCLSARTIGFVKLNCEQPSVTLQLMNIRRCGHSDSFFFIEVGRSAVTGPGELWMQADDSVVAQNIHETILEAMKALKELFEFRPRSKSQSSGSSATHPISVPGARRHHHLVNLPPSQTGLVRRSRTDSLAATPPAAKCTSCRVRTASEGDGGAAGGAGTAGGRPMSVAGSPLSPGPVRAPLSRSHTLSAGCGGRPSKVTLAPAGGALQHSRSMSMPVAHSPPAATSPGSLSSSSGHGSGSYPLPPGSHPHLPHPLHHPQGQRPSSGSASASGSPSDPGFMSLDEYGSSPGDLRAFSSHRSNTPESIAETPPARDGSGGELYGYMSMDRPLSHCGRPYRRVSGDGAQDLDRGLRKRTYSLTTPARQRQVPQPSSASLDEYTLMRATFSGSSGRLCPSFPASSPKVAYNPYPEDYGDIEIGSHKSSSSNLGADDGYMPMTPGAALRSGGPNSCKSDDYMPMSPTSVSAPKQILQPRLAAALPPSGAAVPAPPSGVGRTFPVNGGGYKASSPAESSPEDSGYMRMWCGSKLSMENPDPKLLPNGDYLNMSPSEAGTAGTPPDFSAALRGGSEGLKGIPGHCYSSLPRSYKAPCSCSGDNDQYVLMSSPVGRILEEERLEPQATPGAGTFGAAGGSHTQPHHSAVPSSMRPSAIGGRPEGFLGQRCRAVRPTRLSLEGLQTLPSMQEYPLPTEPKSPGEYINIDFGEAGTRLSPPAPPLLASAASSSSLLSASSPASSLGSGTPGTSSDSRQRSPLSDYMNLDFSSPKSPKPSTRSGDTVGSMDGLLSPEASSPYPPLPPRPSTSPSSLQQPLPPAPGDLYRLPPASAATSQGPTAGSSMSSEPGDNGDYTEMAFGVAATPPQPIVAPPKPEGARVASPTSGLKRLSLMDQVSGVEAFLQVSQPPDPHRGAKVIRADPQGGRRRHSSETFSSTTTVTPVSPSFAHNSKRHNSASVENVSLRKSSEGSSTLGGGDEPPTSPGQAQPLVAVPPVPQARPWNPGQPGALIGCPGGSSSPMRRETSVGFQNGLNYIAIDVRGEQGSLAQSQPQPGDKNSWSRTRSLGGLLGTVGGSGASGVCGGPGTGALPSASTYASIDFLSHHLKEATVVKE

[3] = biological target: acetyltransferase P300 (endogenous, mouse) (mouse (endogenous in Hepa1-6 cells and mouse liver)) (UniProt B2RWS6); assay: co-IP; liver lysates from mice fed an HFD (3 weeks) incubated with P300-specific antibody and protein G beads overnight, washed, then incubated for 2 h with the peptide used to generate the P300 antibody
[4] = biological target: T3, insulin receptor substrate 2 (IRS2), endogenous, mouse (mouse (endogenous in liver and Hepa1-6 cells)) (UniProt P81122); assay: co-IP; endogenous proteins in mouse liver lysates (ob/ob and lean control mice; HFD-fed mice treated with vehicle or C646); antibody at 4 °C for 16 h, protein G beads
T3 sequence: T2 sequence

[5] = biological target: T3, insulin receptor substrate 2 (IRS2), endogenous, mouse (mouse (endogenous in liver and Hepa1-6 cells)); assay: co-IP; endogenous proteins in Hepa1-6 cells treated with 20 µM C37 or inhibitor C646 for 4 h

- binding (FLAG-tagged XBP1s): binds
Molecule: human P300 protein (from UniProt Q09472 1-2414) (enzyme)
- binding [1]: no binding (tested: 1 µg human P300 protein)

- binding [2]: binds
- binding [3]: no binding
- binding [4]: binds
- binding [5]: binds
Molecule: insulin receptor β-subunit (IRβ), endogenous, mouse (from UniProt P15208 753-1372)

- binding [3]: binds
B1: insulin receptor substrate 2 (IRS2), endogenous, mouse (protein, UniProt P81122 1-1321)
chain: T2 sequence
